{"sequences": {"note": "Amino acid sequences for entries named in this document (tags omitted). Residues count along the entry.", "UniProt O14763, residues 58-184": "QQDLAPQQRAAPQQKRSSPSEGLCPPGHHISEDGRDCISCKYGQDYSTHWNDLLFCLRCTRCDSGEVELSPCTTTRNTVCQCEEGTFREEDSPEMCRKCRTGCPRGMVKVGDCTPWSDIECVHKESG"}, "source": "paper PMC3605307", "key": {"[1]": {"biological_target": "T1, HCMV UL141 (residues 30–279), C-terminal hexa-histidine tag, of the crystallised complex (human cytomegalovirus (HCMV), FIX strain) (UniProt Q6RJQ3)", "T1 sequence": "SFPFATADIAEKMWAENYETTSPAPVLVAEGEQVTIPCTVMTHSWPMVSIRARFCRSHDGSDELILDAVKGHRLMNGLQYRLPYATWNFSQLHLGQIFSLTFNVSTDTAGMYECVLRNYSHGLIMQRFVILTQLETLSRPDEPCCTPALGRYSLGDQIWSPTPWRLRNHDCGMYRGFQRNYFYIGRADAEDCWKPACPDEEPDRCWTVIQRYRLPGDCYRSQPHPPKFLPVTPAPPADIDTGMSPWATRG", "assay": "crystal structure; both purified"}, "[2]": {"biological_target": "Human TRAIL-R2 ectodomain (residues 58–184), released from the Fc fusion (human) (UniProt O14763)", "assay": "SEC; size-exclusion elution profiles of the purified proteins against marker proteins; both purified"}}, "note": "Results are given in words; binding and its absence hold for the method and conditions named. Some binding calls cover weakened binding; strength is not graded here. For some assays here: Sequences can lack the tags named with a protein.", "data": [{"substance": "Human TRAIL-R2 ectodomain (residues 58–184), released from the Fc fusion (from UniProt O14763 58-184) (domain or fragment)", "values": [{"measurement": "binding", "setting": "[1]", "result": "binds"}, {"measurement": "binding", "setting": "[2]", "result": "no binding"}]}]}
